Measured values taken from US5864028.

Columns and labels:
Assay in all cases: EMSA
[1] = tested on: TNF-alpha ribozyme-binding protein(s) in cytoplasmic extract of HL60 cells (Homo sapiens); details: protein in an extract
[2] = tested on: TNF-alpha ribozyme-binding protein(s) in cytoplasmic extract of PBMN cells (major one identified as GAPDH) (Homo sapiens); details: protein in an extract
[3] = tested on: TNF-alpha ribozyme-binding protein(s) in cytoplasmic extract of WH164 cells; details: protein in an extract; label: 32P; variant of TNF-alpha ribozyme II
[4] = label: 32P, variant of TNF-alpha ribozyme II

GAGUACUAAGAUGAUCUCUGAUGAGUCCGUGAGGACGAAACUGCCUGGUCUAG [TNF-alpha ribozyme B]
binding result ([1]; label: 32P internal): binds

GCUGAUGAGUCCGUGAGGACGAAACUGCCUGGUACUAAAUU [5' truncated TNF-alpha ribozyme]
binding result ([2]; weak complex not always detected, label: 32P, variant of TNF-alpha ribozyme II): no binding

GUAAGAUGAUCUCUGAUGAGUCCGUGAGGAAAAAGACUUAGUGCAAUGCAACUGAUGAGUCCGUGAGGACGAAACAGGAGUUGCGAAUU [IL-2-PB-Rz]
binding result ([2]; bound strongly in crude extracts): binds

GUAAGAUGAUCUCUGAUGAGUCCGUGAGGACGAAACUGCCUGAAUU [TNF-alpha ribozyme II]
binding result ([2]; label: 32P internal): binds | binding result ([1]; not inhibited by tRNA or poly(dC)(dI), label: 32P internal): binds

GUAAGAUGAUCUCUGAUGAGUCCGUGAGGACGAAGAAUU [3' truncated TNF-alpha ribozyme]
binding result [3]: binds | binding result [2, 4]: binds | binding result [1, 4]: binds

For at least one entry, the source does not settle the construct or the ends of the probe. At least one result comes from cells or an extract, where the contact may be indirect. For some assays here: A negative result means that nothing was seen under these conditions.
